No constants are given. Whether binding was seen depends on the method and setting. Some binding calls cover weakened binding; strength is not graded here.
Experiments:
[1] = target: PDGFRβ E390A mutant with C-terminal flag-tag, expressed in MEFs (UniProt P09619); assay: PDGF-induced receptor dimerization on MEFs, DSS crosslinking, IP anti-PDGFR, SDS-PAGE, IB anti-flag (left panel per paragraph 60)
[2] = target: PDGFRβ E390A mutant with C-terminal flag-tag, expressed in MEFs (UniProt P09619); assay: PDGF-induced receptor dimerization on MEFs, DSS crosslinking, IP anti-PDGFR, SDS-PAGE, IB anti-flag
[3] = target: PDGFRβ E390A mutant with C-terminal flag-tag, expressed in MEFs (UniProt P09619); assay: PDGF-induced receptor dimers on cells, covalent crosslinking (FIG. 16C)
[4] = target: PDGFRβ E390A mutant with C-terminal flag-tag, expressed in MEFs (UniProt P09619); assay: PDGF-induced receptor dimers on cells, DSS crosslinking, IP, anti-flag immunoblot
[5] = target: PDGFRβ E390A mutant with C-terminal flag-tag, expressed in MEFs (UniProt P09619); assay: PDGF-induced receptor dimers on cells, crosslinking, IP, anti-flag and antiphosphotyrosine immunoblots
[6] = target: PDGFRβ E390A mutant with C-terminal flag-tag, expressed in MEFs (UniProt P09619); assay: PDGF-induced receptor dimers on cells, DSS crosslinking, IP, SDS-PAGE, anti-flag immunoblot
[7] = target: wild type PDGFRβ with C-terminal flag-tag, expressed in PDGFRα/β-deficient MEFs (UniProt P09619); assay: PDGF-induced receptor dimerization on MEFs, DSS crosslinking, IP anti-PDGFR, SDS-PAGE, IB anti-flag (left panel per paragraph 60)
[8] = target: wild type PDGFRβ with C-terminal flag-tag, expressed in PDGFRα/β-deficient MEFs (UniProt P09619); assay: PDGF-induced receptor dimerization on MEFs, DSS crosslinking, IP anti-PDGFR, SDS-PAGE, IB anti-flag
[9] = target: wild type PDGFRβ with C-terminal flag-tag, expressed in PDGFRα/β-deficient MEFs (UniProt P09619); assay: PDGF-induced receptor dimers on cells, covalent crosslinking (FIG. 16C)
[10] = target: wild type PDGFRβ with C-terminal flag-tag, expressed in PDGFRα/β-deficient MEFs (UniProt P09619); assay: PDGF-induced receptor dimers on cells, DSS crosslinking, IP, SDS-PAGE, anti-flag immunoblot

Measured: binding

PDGFRβ E390A mutant with C-terminal flag-tag, expressed in MEFs (from UniProt P09619 33-1106) (receptor)
binds: [1] | [2] | [3] | [4] | [5] | [6]

wild type PDGFRβ with C-terminal flag-tag, expressed in PDGFRα/β-deficient MEFs (from UniProt P09619 33-1106) (receptor)
binds: [7] | [8] | [9] | [10]
